The list does not hold the whole screen: it gathers some chemical classes. Other doses and runs of a compound may be missing. T/C gives the treated animals as a percentage of the vehicle group. For survival time, the PubChem record calls one and a half times the control and up active, and a quarter to a half above the control has no call in these data; cut-offs in other NCI protocols can differ. Some T/C values are marked as having no survivor count here; that says nothing about deaths at the dose. Schedule codes are those of the source, taken here to give the interval after Q, in days (D) or hours (H), and the number of doses after X.
Tested on: BDF1 mice, intracerebral L1210 leukemia, survival T/C
Assay: NCI In Vivo Anticancer Drug Screen. Data for tumor model L1210 Leukemia (intracerebral) in B6D2F1 (BDF1) mice
Details: T/C endpoint: mean survival time, schedule: Q01DX001 (ip), vehicle: saline, higher T/C = longer survival
Experimental: The antitumor activity of compounds was measured in mice bearing transplantable tumors. Survival or tumor size were measured and the results are expressed as the measurement made in the treated group (T) divided by the measurement made in the vehicle treated control group (C). The tumor model used in this assay is L1210 Leukemia (intracerebral) in B6D2F1 (BDF1) mice

ClCCNCCCNCCCl
T/C (dose: 50.0 mg/kg/injection): 107 % of control [survivor count not shown] | T/C (dose: 100.0 mg/kg/injection): 114 % of control [survivor count not shown] | T/C (dose: 200.0 mg/kg/injection): 100 % of control [survivor count not shown]
